Chains of the proteins cited; added tags and fusions are not shown. Lines headed by an entry give the natural chain unless they say otherwise; changes in a name come on top.
UniProt P55258: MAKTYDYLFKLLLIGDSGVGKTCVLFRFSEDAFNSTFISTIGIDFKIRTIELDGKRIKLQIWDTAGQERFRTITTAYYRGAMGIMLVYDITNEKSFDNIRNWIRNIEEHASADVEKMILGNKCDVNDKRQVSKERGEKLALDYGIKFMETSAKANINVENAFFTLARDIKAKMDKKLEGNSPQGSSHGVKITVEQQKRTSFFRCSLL
UniProt Q3TN34: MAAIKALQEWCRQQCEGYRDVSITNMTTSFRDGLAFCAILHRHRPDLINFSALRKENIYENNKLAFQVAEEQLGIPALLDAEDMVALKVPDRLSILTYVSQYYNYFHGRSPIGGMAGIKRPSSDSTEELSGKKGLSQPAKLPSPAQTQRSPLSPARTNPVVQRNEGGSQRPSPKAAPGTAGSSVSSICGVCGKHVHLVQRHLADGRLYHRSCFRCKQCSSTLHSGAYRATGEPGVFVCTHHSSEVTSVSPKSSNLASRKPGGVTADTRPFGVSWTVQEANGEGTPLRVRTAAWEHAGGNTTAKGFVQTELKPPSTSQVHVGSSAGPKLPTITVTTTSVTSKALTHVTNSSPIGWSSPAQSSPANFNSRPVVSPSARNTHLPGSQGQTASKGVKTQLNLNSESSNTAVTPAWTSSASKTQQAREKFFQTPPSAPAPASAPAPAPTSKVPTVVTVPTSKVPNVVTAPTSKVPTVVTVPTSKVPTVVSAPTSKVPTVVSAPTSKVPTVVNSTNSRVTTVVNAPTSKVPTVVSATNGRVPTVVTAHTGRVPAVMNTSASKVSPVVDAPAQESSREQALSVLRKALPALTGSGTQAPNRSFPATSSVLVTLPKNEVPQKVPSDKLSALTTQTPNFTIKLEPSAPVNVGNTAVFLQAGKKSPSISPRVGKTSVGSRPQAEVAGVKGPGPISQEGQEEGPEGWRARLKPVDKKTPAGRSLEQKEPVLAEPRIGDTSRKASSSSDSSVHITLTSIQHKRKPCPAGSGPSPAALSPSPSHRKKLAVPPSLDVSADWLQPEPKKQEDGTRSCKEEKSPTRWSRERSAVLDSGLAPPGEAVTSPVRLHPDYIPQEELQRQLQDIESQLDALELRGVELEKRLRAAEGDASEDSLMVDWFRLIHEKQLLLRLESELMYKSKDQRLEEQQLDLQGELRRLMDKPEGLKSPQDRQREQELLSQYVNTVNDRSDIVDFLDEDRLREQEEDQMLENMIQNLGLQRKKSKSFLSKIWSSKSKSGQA

In PMC8113518, “JRAB/MICAL-L2 undergoes liquid–liquid phase separation to form tubular recycling endosomes” (Communications Biology, 2021):

Target: HA-Rab8A dominant-active (DA) mutant (Q67L) (mouse) (UniProt P55258)
Experiment: co-IP; HEK293 lysates; anti-HA antibody (12CA5) on Protein G beads; buffer A, 90 min, 4 °C; western blot

binding: binds
Substance: GFP-JRABΔLIM (from UniProt Q3TN34)

Results are given in words; binding and its absence hold for the method and conditions named. In cells and extracts the contact can be indirect. A result given as binding can be weak or reduced; the word gives no strength.
